Reference: publication PMC6896067
No constants are given. Whether binding was seen depends on the method and setting. In cells and extracts the contact can be indirect. Some binding calls cover weakened binding; strength is not graded here.

Chains of the proteins cited; added tags and fusions are not shown.
UniProt P51532: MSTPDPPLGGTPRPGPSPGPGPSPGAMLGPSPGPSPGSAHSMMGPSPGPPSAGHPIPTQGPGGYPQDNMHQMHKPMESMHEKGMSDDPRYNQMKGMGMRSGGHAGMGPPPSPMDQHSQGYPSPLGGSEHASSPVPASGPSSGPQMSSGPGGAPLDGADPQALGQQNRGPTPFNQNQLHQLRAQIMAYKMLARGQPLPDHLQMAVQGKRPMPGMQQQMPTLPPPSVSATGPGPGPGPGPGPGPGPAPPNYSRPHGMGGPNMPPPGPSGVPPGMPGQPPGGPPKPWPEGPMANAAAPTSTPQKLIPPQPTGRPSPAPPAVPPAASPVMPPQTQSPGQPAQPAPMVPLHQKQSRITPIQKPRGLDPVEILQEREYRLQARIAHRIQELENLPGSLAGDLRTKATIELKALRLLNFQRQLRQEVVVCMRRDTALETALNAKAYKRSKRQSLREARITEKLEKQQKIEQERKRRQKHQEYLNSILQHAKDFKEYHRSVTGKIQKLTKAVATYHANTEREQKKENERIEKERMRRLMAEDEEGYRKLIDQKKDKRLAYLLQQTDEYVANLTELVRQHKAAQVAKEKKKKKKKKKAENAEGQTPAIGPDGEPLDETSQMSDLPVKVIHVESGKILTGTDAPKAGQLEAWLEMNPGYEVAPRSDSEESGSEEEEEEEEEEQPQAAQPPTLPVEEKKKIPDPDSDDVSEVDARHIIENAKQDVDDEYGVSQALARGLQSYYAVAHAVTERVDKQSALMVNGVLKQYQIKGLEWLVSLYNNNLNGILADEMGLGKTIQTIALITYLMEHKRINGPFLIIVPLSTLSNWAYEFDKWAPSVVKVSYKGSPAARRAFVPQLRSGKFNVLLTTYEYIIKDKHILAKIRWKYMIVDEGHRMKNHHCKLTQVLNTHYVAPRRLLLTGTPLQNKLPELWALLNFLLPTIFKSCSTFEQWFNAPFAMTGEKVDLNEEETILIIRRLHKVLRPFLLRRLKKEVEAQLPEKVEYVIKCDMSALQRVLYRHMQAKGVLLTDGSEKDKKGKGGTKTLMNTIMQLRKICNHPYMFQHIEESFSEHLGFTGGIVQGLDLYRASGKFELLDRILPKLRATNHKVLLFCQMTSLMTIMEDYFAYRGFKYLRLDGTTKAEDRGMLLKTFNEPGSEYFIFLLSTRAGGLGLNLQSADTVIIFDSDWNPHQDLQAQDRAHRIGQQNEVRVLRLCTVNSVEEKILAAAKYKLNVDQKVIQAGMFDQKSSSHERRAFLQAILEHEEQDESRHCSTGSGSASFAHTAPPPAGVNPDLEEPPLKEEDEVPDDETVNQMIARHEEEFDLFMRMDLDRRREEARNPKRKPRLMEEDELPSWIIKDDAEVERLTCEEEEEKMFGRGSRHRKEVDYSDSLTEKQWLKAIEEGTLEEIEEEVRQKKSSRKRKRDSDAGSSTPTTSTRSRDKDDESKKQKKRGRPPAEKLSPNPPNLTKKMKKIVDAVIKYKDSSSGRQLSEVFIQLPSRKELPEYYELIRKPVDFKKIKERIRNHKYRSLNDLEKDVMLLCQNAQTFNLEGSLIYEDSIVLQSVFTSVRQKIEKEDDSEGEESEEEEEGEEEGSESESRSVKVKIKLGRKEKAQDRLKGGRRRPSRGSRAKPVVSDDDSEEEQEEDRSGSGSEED
UniProt Q9H8M2: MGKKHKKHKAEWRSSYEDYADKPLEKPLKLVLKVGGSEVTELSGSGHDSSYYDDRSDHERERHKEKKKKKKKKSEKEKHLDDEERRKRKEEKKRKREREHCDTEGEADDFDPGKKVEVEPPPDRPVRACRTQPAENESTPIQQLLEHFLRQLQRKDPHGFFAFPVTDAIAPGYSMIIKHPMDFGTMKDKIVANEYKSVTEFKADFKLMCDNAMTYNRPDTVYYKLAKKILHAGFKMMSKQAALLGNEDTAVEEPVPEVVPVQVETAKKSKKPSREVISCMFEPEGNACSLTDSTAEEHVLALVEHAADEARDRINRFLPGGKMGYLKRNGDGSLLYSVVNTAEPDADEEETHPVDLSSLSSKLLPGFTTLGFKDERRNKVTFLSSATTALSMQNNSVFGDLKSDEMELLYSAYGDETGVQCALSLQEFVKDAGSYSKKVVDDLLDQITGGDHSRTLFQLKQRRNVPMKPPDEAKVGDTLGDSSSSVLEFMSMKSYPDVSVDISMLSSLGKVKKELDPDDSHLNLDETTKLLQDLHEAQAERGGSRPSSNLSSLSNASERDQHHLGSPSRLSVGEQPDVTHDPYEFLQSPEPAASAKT

Columns and labels:
[1] = biological target: BRG1, ATPase subunit of the SWI-SNF chromatin-remodeling complex (human (endogenous in MCF-10A)) (UniProt P51532); experiment: co-IP; 1 ug anti-BRG1 (Santa Cruz sc-17796) or control IgG with ~1 mg nuclear extract overnight at 4 °C, Protein G Sepharose; washes with Tris pH 7.4, 300 mM NaCl, 0.5 % NP-40; immunoblot for BRG1 and BRD9; MCF-10A wild type and mutant cells, or DKI cells transduced with lenti-BRD9
[2] = biological target: bromodomain-containing protein 9 (BRD9) (human (endogenous in MCF-10A)) (UniProt Q9H8M2); experiment: co-IP; precipitation of endogenous BRD9, BRG1 detected (Figure S9); conditions not shown

Row | Substance | binding [1] | binding [2]
1 | BRD9 overexpressed from lenti-BRD9-Puro (from UniProt Q9H8M2 1-597) | binds | 
2 | BRG1, ATPase subunit of the SWI-SNF chromatin-remodeling complex (from UniProt P51532 1-1647) |  | binds
3 | bromodomain-containing protein 9 (BRD9) (from UniProt Q9H8M2 1-597) | binds | 
